Results: patent US20240336661A1, “PEPTIDES DERIVED FROM RUMINOCOCCUS TORQUES” (University of Copenhagen, priority 2021, published 2024)
Results are given in words; binding and its absence hold for the method and conditions named. In cells and extracts the contact can be indirect. Some entries that bind do so weakly or less than the wild type. Tags and fused reporters may be left off the sequences shown.

Protein sequences, listed by entry. Tags and fused reporters are not part of them. Lines headed by an entry give the natural chain unless they say otherwise; changes in a name come on top.
UniProt P06756: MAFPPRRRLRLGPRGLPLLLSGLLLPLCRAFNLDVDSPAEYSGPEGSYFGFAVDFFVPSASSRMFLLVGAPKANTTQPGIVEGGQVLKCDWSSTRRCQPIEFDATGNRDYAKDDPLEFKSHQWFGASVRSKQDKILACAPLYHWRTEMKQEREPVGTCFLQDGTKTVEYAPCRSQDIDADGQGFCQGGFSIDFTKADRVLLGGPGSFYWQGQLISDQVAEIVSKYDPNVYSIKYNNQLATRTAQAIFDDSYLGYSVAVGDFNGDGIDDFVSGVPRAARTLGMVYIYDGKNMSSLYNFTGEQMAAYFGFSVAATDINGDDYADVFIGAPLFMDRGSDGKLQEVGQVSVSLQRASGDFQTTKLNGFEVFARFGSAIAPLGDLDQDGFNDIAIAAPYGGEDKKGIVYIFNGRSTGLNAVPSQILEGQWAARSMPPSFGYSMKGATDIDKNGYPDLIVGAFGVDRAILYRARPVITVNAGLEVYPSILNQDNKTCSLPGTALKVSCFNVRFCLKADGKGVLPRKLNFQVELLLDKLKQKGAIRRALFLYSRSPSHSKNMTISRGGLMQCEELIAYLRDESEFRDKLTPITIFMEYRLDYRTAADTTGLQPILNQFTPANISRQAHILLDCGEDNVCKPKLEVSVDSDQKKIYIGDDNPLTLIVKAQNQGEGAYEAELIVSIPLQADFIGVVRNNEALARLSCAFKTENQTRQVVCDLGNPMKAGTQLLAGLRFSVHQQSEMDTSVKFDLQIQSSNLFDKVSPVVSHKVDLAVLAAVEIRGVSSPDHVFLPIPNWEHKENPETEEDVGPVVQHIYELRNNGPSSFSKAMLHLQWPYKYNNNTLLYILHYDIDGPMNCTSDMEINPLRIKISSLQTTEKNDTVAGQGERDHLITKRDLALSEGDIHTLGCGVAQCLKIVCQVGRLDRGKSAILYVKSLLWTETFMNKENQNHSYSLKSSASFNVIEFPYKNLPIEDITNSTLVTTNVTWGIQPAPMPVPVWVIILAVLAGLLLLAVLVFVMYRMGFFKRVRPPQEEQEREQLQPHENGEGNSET

How the values were obtained:
[1] = biological target: His-tag integrin αV/β5 receptor (UniProt P06756); test: co-immunoprecipitation on Ni-NTA, immunoblot (FIG. 6)
[2] = biological target: His-tag integrin αV/β5 receptor (UniProt P06756); test: co-immunoprecipitation on Ni-NTA: 100 nM Fc-fused RUCILP2 with 5 nM His-tag αV/β5 integrin, immunoblot

binding [1]: binds
binding [2]: binds
B1: Fc-fused RUCILP2 (Fc fusion, not shown: a dimerising Fc or GST)
chain: APVDVKVSEITETSAKASWKNAADGKEAAGYNVYVDGVKLNKELLTEASCGLTNLKAETTYFVEVTAVDAAGNESVKSEKVTFKTLK
